According to patent publication US20120258971A1, “THERAPEUTIC AGENT FOR CHRONIC PAIN” (OTSUKA PHARMACEUTICAL CO., LTD., priority 2009, published 2012):
Counter-ions that a name gives are not always drawn. Some of these results come from one statement about several compounds together.

System: chronic occipital-cervical pain
Test: Pain intensity (numerical rating scale, NRS) in a chronic pain patient during drug treatment
Type: in vivo, human
Conditions: morphine hydrochloride tablets 70 mg/day oral, alone; scale 0 (no pain) to 10 (worst)
Description: Morphine, fluvoxamine, aripiprazole, and other drugs were administered for about 11 months to a patient who was diagnosed as a chronic pain sufferer with chronic occipital-cervical pain that had continued for ten years or more. The intensity of the pain in the patients' occipital-cervical region (neck) was evaluated over time.
The intensity of pain was evaluated using a numerical rating scale (NRS) in which pain was orally reported on an 11-step scale (0 to 10). This evaluation method numerically expresses (quantifies) the degree of pain on a scale of 0 (no pain) to 10 (worst conceivable pain). This method provides a good reflection of the degree of pain of a patient before and after treatment.
From the 4th week of the first month, in addition to morphine, oral administration of fluvoxamine (Depromel tablets; produced by Meiji Seika Pharma Co., Ltd.) in a dose of 50 mg/day was started.
Then, from the 4th week of the 4th month, aripiprazole (Abilify tablets; produced by Otsuka Pharmaceutical Co., Ltd.) was orally administered in a dose of 3 mg/day. […] Furthermore, even when the administration of morphine was stopped from the 8th month, the NRS value remained at 0. […]

SMILES: CN1CC[C@]23c4c5ccc(O)c4O[C@H]2[C@@H](O)C=C[C@H]3[C@H]1C5 [morphine hydrochloride tablets]
- NRS value in the neck: 8 to 10
